Measured values published in US10266871B2, “Measurement method for thrombin production” (DAIICHI SANKYO COMPANY, LIMITED, priority 2012, dated 2019).
Entries after “also recorded” stand apart in the source; their conditions may differ. For at least one compound, name, drawing or mass did not settle the structure.

System: thrombin generation in human PRP
Conditions: Example 2; Edoxaban 40, 80 ng/mL; Ticagrelor 3 μg/mL; ADP 10 μM, TF 0.25 pM; hydrate

CN1CCc2nc(C(=O)N[C@@H]3C[C@@H](C(=O)N(C)C)CC[C@@H]3NC(=O)C(=O)Nc3ccc(Cl)cn3)sc2C1 [Edoxaban, Edoxaban tosilate hydrate]
Effect on thrombin generation, agent used alone compared to controls: suppresses the generation of thrombin; also recorded: concentration-dependently and significantly suppressed thrombin generation, in terms of Lag time, Peak, Time to Peak, and MaxR
